Experimental data taken from patent US9695193B2, “Inhibitors of Plasmodium falciparum equilibrative nucleoside transporter type I as anti-parasitic compounds” (The Trustees of Columbia University in the City of New York, priority 2013, dated 2017).

Sequences of proteins named here, by UniProt entry; tags and fusion partners are left off. A change or cut given only in a name is not applied to a line headed by its entry.
UniProt Q8IDM6: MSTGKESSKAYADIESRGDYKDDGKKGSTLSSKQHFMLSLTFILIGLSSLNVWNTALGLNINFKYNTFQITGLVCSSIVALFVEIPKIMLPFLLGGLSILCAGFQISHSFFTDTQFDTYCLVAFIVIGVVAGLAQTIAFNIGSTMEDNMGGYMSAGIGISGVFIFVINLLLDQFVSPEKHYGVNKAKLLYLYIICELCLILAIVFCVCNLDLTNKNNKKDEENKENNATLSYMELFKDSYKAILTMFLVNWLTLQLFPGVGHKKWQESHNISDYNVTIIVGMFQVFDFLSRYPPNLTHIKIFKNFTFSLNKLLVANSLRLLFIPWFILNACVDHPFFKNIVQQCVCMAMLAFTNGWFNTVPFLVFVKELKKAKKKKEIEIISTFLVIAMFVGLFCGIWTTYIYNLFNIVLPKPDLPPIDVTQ

Target: T1, PfENT1 (Plasmodium falciparum, UniProt Q8IDM6)
T1 construct: expressed in transfected cells; host or cells: fui1Δ yeast (Saccharomyces cerevisiae), co-expressing GFP
Assay type: cell-based
Settings: primary HTS, compounds at 10 μM, 125 μM 5-FUrd
Source text: A yeast-based high throughput screening (HTS) assay was used to identify compounds that inhibit PfENT1. The compounds described in this application were identified by screening four commercially available, chemical compound libraries obtained from Dr. Donald Landry's laboratory (Department of Medicine, Columbia University). These libraries contain approximately 80,000 unique chemical entities. Derivatives of the some of the initial hits were purchased from ChemBridge Corporation (11199 Sorrento Valley Road, Suite 206, San Diego, Calif., 92121) and other novel chemical entities have been synthesized and tested as well.
In the primary screen the compounds were tested at a concentration of 10 μM. Hits were identified by the growth of fui1Δ yeast expressing PfENT1 and Green Fluorescent Protein (GFP) in the presence of the cytotoxic nucleoside 5-fluorouridine (5-FUrd). 5-FUrd is transported by PfENT1. PfENT1 expressing fui1Δ yeast will only grow in the presence of 125 μM 5-FUrd if a PfENT1 inhibitor blocks the uptake of 5-FUrd into the yeast. Significant yeast growth in the HTS in 384 well plates was determined by two criteria: 1) turbidity as determined by the optical density at 620 nm (OD620) and 2) GFP fluorescence intensity. Positive responses were signal intensities greater than four standard deviations above the mean of the negative growth control wells. […]

Compound: CNCCC(Oc1ccc(C(F)(F)F)cc1)c1ccccc1.Cl (stereo not shown) [compound 98]
- Avg Normalized % maximal activity: 4.84%
